Results are given in words; binding and its absence hold for the method and conditions named. Binding seen in cells or lysates may run through a third protein.

Sequences of proteins named here, by UniProt entry; tags and fusion partners are left off.
UniProt Q56242: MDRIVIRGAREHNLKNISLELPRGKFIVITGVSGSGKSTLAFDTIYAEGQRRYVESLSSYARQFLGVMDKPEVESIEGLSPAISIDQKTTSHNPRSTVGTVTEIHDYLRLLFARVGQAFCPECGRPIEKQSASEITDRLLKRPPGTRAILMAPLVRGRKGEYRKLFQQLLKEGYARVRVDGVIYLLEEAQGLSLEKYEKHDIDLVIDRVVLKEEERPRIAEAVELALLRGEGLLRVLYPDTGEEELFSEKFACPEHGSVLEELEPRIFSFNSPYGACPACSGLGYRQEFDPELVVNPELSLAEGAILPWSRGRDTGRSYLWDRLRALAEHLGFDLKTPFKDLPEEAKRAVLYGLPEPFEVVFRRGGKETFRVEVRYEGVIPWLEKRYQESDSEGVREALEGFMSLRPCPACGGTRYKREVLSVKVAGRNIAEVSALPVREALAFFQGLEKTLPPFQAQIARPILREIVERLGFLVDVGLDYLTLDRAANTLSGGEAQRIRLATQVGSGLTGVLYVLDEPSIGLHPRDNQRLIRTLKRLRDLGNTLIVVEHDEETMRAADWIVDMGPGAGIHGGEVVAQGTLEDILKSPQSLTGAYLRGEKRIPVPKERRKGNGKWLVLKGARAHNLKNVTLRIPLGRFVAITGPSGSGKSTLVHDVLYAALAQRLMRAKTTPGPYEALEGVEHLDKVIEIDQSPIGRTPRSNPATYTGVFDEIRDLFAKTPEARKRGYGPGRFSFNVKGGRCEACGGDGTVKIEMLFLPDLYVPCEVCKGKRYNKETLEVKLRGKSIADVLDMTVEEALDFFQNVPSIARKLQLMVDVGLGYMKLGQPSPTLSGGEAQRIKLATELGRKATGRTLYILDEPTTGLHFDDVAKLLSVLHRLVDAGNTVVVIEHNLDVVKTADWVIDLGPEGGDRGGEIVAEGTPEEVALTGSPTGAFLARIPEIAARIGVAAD

This passage reports binding results from PMC3084264.

For the experiment, the target named is T. thermophilus UvrA, the nucleotide-excision repair enzyme (endogenous) (Thermus thermophilus HB8 (endogenous in T. thermophilus HB8 cells)) (UniProt Q56242). The experiment can be described thus: co-IP; endogenous proteins of T. thermophilus HB8 lysate (50 mM Tris-HCl pH 7.5, 30 mM NaCl) treated with DNase I 0.5 mg/ml, 37°C 30 min; polyclonal rabbit antibody on Dynabeads-Protein A; Western blot. Background: Immunoblotting shows a protein as a band on a membrane.

B1: Thermus thermophilus HB8 MutS2 (endogenous) (protein, UniProt Q5SHT5 1-744)
chain: MRDVLEVLEFPRVRALLAERAKTPLGRELALALAPLPREEAEKRHELTGEALSYPYALPEAGTLREAYGRALAGARLSGPELLKAAKALEEAMALKEELLPLKNALSQVAEGIGDHTPFLERVRKALDEEGAVKDEASPRLAQIRRELRPLRQQILDRLYALMDRHREAFQDRFVTLRRERYCVPVRAGMAQKVPGILLDESESGATLFIEPFSVVKLNNRLQALRLKEEEEVNRILRDLSERLAKDEGVPKTLEALGLLDLVQAQAALARDLGLSRPAFGERYELYRAFHPLIPDAVRNSFALDEKNRILLISGPNMGGKTALLKTLGLAVLMAQSGLFVAAEKALLAWPDRVYADIGDEQSLQENLSTFAGHLRRLREMLEEATSHSLVLIDELGSGTDPEEGAALSQAILEALLERGVKGMVTTHLSPLKAFAQGREGIQNASMRFDLEALRPTYELVLGVPGRSYALAIARRLALPEEVLKRAEALLPEGGRLEALLERLEAERLALEAERERLRRELSQVERLRKALAEREARFEEERAERLKALEEEVRAELLKVEAELKALKEKARTEGKRDALRELMALRERYAKKAPPPPPPPGLAPGVLVEVPSLGKRGRVVELRGEEVLVQVGPLKMSLKPQEVKPLPEAEPGKPLLAKPRREVKEVDLRGLTVAEALLEVDQALEEARALGLSTLRLLHGKGTGALRQAIREALRRDKRVESFADAPPGEGGHGVTVVALRP
B1: the binding result was “no binding”.
